Results are given in words; binding and its absence hold for the method and conditions named. Binding seen in cells or lysates may run through a third protein. Some entries that bind do so weakly or less than the wild type. Tags and fused reporters may be left off the sequences shown. Values belong to the binder of their own block, whether it stands above or below them.
Tests used:
[1] = target: T1, dUSP36-D-V5 (wild-type dUSP36-D isoform, V5-tagged) (Drosophila melanogaster) (UniProt Q9VRP5); assay: co-IP; Drosophila S2 cells transfected with the tagged proteins for 48 h; lysis and immunoprecipitation in RIPA buffer (50 mM Tris-HCl, 150 mM NaCl, 1 mM EDTA, 1% IGEPAL, 0.5% sodium deoxycholate) with protease inhibitors and PR-619; lysates precleared; antibody (anti-V5 or anti-dMYC) with protein A or G-Sepharose overnight at 4°C; 4 washes; Western blot
T1 sequence: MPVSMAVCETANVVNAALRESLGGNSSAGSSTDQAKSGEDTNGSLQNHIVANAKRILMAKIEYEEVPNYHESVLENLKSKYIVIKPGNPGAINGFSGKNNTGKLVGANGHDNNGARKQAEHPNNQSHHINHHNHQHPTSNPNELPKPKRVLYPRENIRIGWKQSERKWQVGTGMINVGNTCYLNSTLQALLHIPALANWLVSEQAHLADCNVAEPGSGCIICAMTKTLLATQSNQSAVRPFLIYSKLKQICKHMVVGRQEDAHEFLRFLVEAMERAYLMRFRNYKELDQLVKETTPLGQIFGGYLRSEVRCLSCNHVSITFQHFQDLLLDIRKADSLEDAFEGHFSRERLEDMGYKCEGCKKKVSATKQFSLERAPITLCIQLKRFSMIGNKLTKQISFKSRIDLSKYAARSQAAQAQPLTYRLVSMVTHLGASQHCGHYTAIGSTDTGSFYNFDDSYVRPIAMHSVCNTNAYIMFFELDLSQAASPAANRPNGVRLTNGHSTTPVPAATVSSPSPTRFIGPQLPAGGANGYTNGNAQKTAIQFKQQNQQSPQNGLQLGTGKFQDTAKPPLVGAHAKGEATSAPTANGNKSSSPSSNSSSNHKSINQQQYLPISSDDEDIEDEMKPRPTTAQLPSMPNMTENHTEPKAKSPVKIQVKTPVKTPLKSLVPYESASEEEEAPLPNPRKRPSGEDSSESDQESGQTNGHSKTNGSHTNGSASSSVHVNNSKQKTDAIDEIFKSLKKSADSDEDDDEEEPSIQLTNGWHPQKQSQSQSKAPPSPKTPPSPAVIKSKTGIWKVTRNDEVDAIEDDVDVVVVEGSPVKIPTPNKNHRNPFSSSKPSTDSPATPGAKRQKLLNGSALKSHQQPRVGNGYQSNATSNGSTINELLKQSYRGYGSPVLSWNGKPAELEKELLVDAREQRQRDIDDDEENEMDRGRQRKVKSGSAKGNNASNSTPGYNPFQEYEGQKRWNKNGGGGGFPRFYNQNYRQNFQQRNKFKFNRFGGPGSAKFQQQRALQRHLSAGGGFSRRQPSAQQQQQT

[2] = target: T2, dMYC-Flag (Drosophila melanogaster) (UniProt Q9W4S7); assay: as above
T2 sequence: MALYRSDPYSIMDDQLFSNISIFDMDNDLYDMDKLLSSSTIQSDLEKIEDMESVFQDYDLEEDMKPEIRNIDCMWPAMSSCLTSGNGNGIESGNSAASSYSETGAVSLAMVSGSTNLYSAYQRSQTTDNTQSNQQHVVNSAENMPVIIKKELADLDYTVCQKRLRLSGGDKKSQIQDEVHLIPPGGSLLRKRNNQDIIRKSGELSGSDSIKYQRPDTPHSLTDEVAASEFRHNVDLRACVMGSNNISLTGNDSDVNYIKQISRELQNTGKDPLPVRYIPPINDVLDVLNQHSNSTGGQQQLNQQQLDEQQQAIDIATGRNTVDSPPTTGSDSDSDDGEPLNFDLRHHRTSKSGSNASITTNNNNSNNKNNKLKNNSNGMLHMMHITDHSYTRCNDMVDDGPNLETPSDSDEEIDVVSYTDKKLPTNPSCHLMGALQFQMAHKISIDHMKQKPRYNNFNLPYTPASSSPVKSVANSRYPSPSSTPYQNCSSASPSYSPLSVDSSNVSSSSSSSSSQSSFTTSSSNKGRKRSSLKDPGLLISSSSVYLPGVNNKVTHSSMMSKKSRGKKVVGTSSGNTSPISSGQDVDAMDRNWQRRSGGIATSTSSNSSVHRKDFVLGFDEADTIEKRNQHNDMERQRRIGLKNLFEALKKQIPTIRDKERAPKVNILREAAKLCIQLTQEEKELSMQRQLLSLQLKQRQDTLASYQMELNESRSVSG

binding [1]: binds
B1: dMYC-Flag (protein, UniProt Q9W4S7 1-717)
chain: T2 sequence

binding [2]: binds
B2: dUSP36-D-V5 (wild-type dUSP36-D isoform, V5-tagged) (enzyme, UniProt Q9VRP5 1-1038)
chain: T1 sequence

binding [2]: binds
binding [1]: binds
B3: AGO-HA (protein, UniProt Q9VZF4 1-1326)
chain: MERGCPAASSESVTSAGERTQSAVTSSTSTWVKSQASTSRKTEASEESGLGAVDAEVGAGREAFVSMSTLREDVEDVCVSSNSQHGFAVVLDDESSTFEISSSNSLPTSAGAASTVGVVAVDDSSSTDTLNGGHPDLGHPASSEHSRQGFFNEDNEDPPVVCLINDDDDDEEPEPEEDDEEELIEDEDEDAVDIVTGAISCPNTSQLALADGTIMAADGSKIFLETPVVEEAQPHPGQVVTTGSQSELTGKPKRLSDEFLLGEEDQAENLALGRCIKSEPVNPVDDNPSEGDDGATCFSLHDRLMSVRLKQMSLTANTVSNPSPAASANAAAPEEASTSNSSSTSSSALSRADIESMDLIERRDFETEQRLTGGIILRTSSMVSQNKLNLSLIKSMAGGSKAANGSGTANSDDWPSSSNGRTVSSDSKYTYKDLSTTPTSSRKYTNSRLSKSTAKLNLGSSLGASSCSQHRSGSSSTSKSMESSTSCTGAARTDVYTNTNSNDYPSLAPTTSGSSTSGGSCQQDQEENVSASVSYSSVGSQTSQESGCSRTTAINPTAACSTGSACLGDSQASTSASTSSGAGASNRCQYATTSTTKAARQVNASAQTQERFLTRSNPPAASGAGSVGANPTASVRQRRNGSSDVVHLEVVVEEGAGGGDGGVVEPGDFSAEEPWANCDEENNCSDLEEICTCQNGNGSSYGGSNASLSETFDMDAMDPDEPISLSLSSASAGFTEYSLTNPSSLMSHQRKRKFNEGRLLDGGDYSVTISSSGEVGGPGSGVSDNCRKRIAYDFASTPRSSQHLGPTAVLSVTPSSHLTSSTPGSALGRRTPRSVPSRDNPPPELQHWLAQFQRWSHVERLLALDRLIDHCDPSQVRHMMKVIEPQFQRDFISLLPRELALFVLSYLEPKDLLRAAQTCRSWRFLCDDNLLWKEKCRKAQILAEPRSDRPKRGRDGNMPPIASPWKAAYMRQHIIEMNWRSRPVRKPKVLKGHDDHVITCLQFSGNRIVSGSDDNTLKVWSAVNGKCLRTLVGHTGGVWSSQMSGNIIISGSTDRTLKVWDMDSGACVHTLQGHTSTVRCMHLHGSKVVSGSRDATLRVWDIEQGSCLHVLVGHLAAVRCVQYDGKLIVSGAYDYMVKIWHPERQECLHTLQGHTNRVYSLQFDGLHVVSGSLDTSIRVWDVETGNCKHTLMGHQSLTSGMELRQNILVSGNADSTVKVWDITTGQCLQTLSGPNKHHSAVTCLQFNSRFVVTSSDDGTVKLWDVKTGDFIRNLVALDSGGSGGVVWRIRANDTKLICAVGSRNGTEETKLMVLDFDVEGACVKCS

From paper PMC7316882
